# Measured values: the supplement of paper PMC11098740
# Chains of the proteins cited; added tags and fusions are not shown.
# UniProt O14980, whole entry: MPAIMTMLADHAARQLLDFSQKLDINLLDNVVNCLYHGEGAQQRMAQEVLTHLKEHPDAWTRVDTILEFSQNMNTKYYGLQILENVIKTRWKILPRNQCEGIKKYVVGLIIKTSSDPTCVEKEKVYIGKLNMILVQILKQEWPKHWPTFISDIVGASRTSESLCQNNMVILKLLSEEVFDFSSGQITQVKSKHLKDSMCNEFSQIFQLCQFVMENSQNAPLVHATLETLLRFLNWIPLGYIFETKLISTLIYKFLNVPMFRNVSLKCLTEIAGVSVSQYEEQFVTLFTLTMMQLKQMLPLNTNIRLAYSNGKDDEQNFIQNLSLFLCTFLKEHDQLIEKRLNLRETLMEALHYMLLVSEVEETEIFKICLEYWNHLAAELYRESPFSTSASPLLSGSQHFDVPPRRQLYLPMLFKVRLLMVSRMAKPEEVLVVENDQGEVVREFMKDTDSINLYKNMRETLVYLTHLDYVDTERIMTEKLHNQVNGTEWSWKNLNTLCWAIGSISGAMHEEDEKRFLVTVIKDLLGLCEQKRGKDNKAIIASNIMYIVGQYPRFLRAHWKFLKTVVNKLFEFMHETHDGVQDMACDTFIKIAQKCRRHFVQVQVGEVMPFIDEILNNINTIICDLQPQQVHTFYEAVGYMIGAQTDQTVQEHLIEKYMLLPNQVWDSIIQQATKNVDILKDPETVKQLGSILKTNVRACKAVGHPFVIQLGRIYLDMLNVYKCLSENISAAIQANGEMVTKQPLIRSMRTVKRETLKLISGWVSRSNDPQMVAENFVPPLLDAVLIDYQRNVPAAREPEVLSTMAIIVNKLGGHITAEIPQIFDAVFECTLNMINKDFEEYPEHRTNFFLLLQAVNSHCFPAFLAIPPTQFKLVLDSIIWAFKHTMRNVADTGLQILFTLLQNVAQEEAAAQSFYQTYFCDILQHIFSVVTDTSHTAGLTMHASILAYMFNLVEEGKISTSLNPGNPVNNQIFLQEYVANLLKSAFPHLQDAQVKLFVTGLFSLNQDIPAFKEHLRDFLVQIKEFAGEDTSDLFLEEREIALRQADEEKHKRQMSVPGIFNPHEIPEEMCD
# This is one part of the list. Many values rest on one well or one pass, so single values are uncertain.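 Pooled together, 41 HAP1 clones carry intronic fluorescent tags on 61 cancer-associated proteins, and each clone is recognized by its imaging pattern. Measurements are benchmarked against DMSO-treated control wells. dBET6, a BRD4 degrader, served as the positive control.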
# Tests used:
# [1] = target: XPO1 (intron 15 mScarlet tag, HAP1) (UniProt O14980); assay: XPO1 fluorescence intensity change vs DMSO (log2 fold change); higher = more XPO1 protein; conditions: 6 h
# [2] = target: BRD4 (intron 10 mScarlet tag, HAP1) (UniProt O60885); assay: BRD4 median nuclear fluorescence intensity change vs DMSO (log2 fold change); higher = more BRD4 protein; conditions: 6 h
Compound,XPO1 fluorescence intensity change (log2) [1],BRD4 median nuclear fluorescence intensity change (log2) [2]
CC(C)n1nc(-c2ccc3oc(N)nc3c2)c2c(N)ncnc21 (0.12345679 µM),-0.00628,-0.0783
CN(C)CC#Cc1ccc(OCCCc2sc(N3CCc4cccc(C(=O)Nc5nc6ccccc6s5)c4C3)nc2C(=O)O)c(F)c1 (10 µM),-0.0281,-0.06
Cc1ccc(CNC(=O)c2nnc(CCl)s2)cc1 (1 µM),0.0148,-0.0179
Cc1cnc(NC(=O)Nc2cc(Br)c(C)cc2OC[C@@H]2CNCCO2)cn1 (20 µM),-0.164,-0.139
O=C(NCCS(=O)(=O)c1ccccc1)c1cc2c(nc3sccn32)s1 (0.1 µM),-0.0725,0.0425
CCc1cccc(NC(=O)CSc2nc3ccccc3c(=O)n2C(C)C)c1 (1 µM),-0.107,0.215
CCc1nc(-c2ccc(O)c(O)c2)cs1 (10 µM),0.0673,0.0311
Cc1cc(C)c(C#N)c(NCc2ccc(Cn3ccnc3)cc2)n1 (1 µM),-0.0149,-0.165
CCc1noc(CC)c1CNC(C)c1cnc2ccsc2c1 (stereo unspecified) (10 µM),-0.0553,0.0434
O=c1c2ccccc2nc(CCl)n1Cc1ccco1 (10 µM),-0.162,0.099
O=C(NCC#Cc1cccc(C(F)(F)F)c1)c1cccc(Nc2ncccn2)c1 (10 µM),-0.124,0.163
O=C1CSc2ccc(C(=O)N3CCN(c4cccc(C(F)(F)F)c4)CC3)cc2N1 (10 µM),0.0579,0.0432
COc1ccc(CN(C)c2nc(C(F)(F)F)nc3ccccc23)cc1OC (1 µM),-0.104,-0.216
CCN(C)CC1CCN(c2nc(OC)nc(N3CCCCCC3)n2)C1 (stereo unspecified) (0.1 µM),-0.0255,0.00597
CCc1cc(-c2[nH]ncc2-c2ccc3c(c2)OCCO3)c(O)cc1OC (10 µM),-0.053,-0.0813
NS(=O)(=O)OC[C@@H]1C[C@@H](n2ccc3c(N[C@H]4CCc5ccccc54)ncnc32)C[C@@H]1O (2 µM),-0.0259,0.0786
COc1ccc(/C=C(\C(=O)c2cccs2)N2C=CC=CC2=C(C#N)C#N)c(OC)c1 (10 µM),-0.014,0.0855
COc1ccc(/C=C(\C(=O)c2cccs2)N2C=CC=CC2=C(C#N)C#N)cc1 (1 µM),0.0774,0.0869
Cc1sc(-c2ccco2)nc1C(=O)N1CCCSc2ccccc21 (0.1 µM),0.0482,0.17

# Single records, from the list above. Order of values: XPO1 fluorescence intensity change (log2) [1] | BRD4 median nuclear fluorescence intensity change (log2) [2]
# NS(=O)(=O)OC[C@@H]1C[C@@H](n2ccc3c(N[C@H]4CCc5ccccc54)ncnc32)C[C@@H]1O (2 µM) in the list: -0.0259 | 0.0786
# COc1ccc(CN(C)c2nc(C(F)(F)F)nc3ccccc23)cc1OC (1 µM) in the list: -0.104 | -0.216

# Following part.

Compound,XPO1 fluorescence intensity change (log2) [1],BRD4 median nuclear fluorescence intensity change (log2) [2]
N#CC(C#N)=C1C=CC=CN1/C(=C/c1ccc(F)cc1)C(=O)c1ccc(Br)cc1 (1 µM),0.206,-0.00345
CCCCn1c(=O)[nH]c(=O)c2c1nc(CCl)n2CCC(C)C (10 µM),0.00468,0.12
Cc1nnc(CN(C)c2nc3c(s2)CC(c2ccccc2)CC3)o1 (stereo unspecified) (10 µM),0.074,0.0602
CC1CC2(C)Oc3ccccc3CC2C(C)C1CNCCCN(C)C (stereo unspecified) (10 µM),-0.116,0.0447
CC1CN(c2ccc(C(=O)Nc3cc(Cl)cc(Cl)c3)cn2)CC(C)O1 (stereo unspecified) (10 µM),0.11,0.244
CCc1sc(C(=O)OCC(=O)NCc2ccco2)cc1C (10 µM),-0.0417,0.0813
COc1cc2c(cc1OC)C(c1cccs1)N(C(=O)Nc1ccccc1)CC2 (stereo unspecified) (10 µM),-0.184,-0.0483
CN(Cc1cnn(Cc2ccccc2)c1)C(=O)c1n[nH]c2ccccc12 (10 µM),0.338,0.0222
Cc1ccc(Cl)cc1N1CCN(C(=O)NCc2ccco2)CC1 (10 µM),0.0505,0.0513
COc1cccc(/C=C/C(=O)c2ccc(O)c(CCCl)c2)c1 (10 µM),-0.27,-0.0968
CCn1c(SC(C)C(=O)Nc2cc(C)no2)nc2ccccc21 (stereo unspecified) (10 µM),0.121,0.117
O=C(/C=C/c1ccc(F)c(Br)c1)c1ccc(O)c(CCCl)c1 (10 µM),-0.409,-0.0693
CCCn1nc(C(=O)Nc2nc(-c3ccccn3)cs2)ccc1=O (10 µM),-0.131,0.0229
C[C@H](Nc1ncnc2nc[nH]c12)c1cc2cccc(Cl)c2c(=O)n1-c1ccccc1 (10 µM),0.166,0.306
O=C(COc1ccccc1Cl)Nc1ccc(C(=O)Nc2cccnc2)cc1 (1 µM),-0.0276,0.0646
O=C(/C=C/c1ccc(F)c(F)c1)c1ccc(O)c(CCCl)c1 (10 µM),-0.189,-0.057
Cc1ccc(NC(=O)c2nnc(CCl)s2)cc1 (10 µM),0.0601,-0.00647
CCOc1cc(Cl)c(S(=O)(=O)N2c3ccccc3CC2C)cc1Cl (stereo unspecified) (10 µM),0.0922,-0.0219
N#CC(C#N)=C1C=CC=CN1/C(=C/c1ccccc1)C(=O)c1ccccc1 (10 µM),0.0372,0.0546
